# Assay results

The results are deposited in PubChem (AID1347169; NCATS, 2019).

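Zika-RLuc virus replication in Vero cells, measured as reporter light output 48-72 hours after adding compound. Compounds were run as a dilution series, mostly topping out near 45.9 µM. The number is the fitted half-maximal inhibitory concentration (AC50); a lower value means more potent inhibition. Calls come from the NCATS curve-class ranking: active compounds score 40 to 100, inactive ones have curve class 4, and inconclusive ones score low.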

Values are in µM. All entries here are filed as inconclusive. These entries are mostly ones the record files as inconclusive; other results of the assay are not listed here. Potencies fitted to partial, single-point or poorly fitting curves are rough. Some entries filed as inconclusive have a full curve. Activity scores are not listed here. An entry listed twice with the same setting is a separate test.

SMILES | Potency (µM) | curve
COc1ccc(Br)cc1S(=O)(=O)NC(=O)/C=C/c1ccccc1Cc1ccc2ccccc2c1 | 5.852 | inhibitor, partial curve, poor fit
O=C(O)COc1ccc(-c2nccc3c2C(=O)N(Cc2ccccc2)CC(COc2cccc(C(F)(F)F)c2)O3)cc1 (stereo not drawn) | 0.0104 | inhibitor, full curve, poor fit
CCCCCc1ccc(/C=C/C(=O)Nc2cc(Cl)ccc2C(=O)O)cc1 | 6.583 | inhibitor, full curve, poor fit
CCCc1nc2c(C)cc(-c3nc4ccccc4n3C)cc2n1Cc1ccc(-c2ccccc2C(=O)O)cc1 | 20.82 | inhibitor, partial curve, poor fit
COc1ccc(C(=O)C2CCN(CC(=O)N(Cc3nc4c(c(=O)[nH]3)COCC4)CC3CC3)CC2)cc1 | 0.2082 | inhibitor, full curve, poor fit
Cc1cc(C)c2nc(-c3ccccn3)cc(C(=O)Nc3ccc(S(=O)(=O)Nc4onc(C)c4C)cc3)c2c1 | 37.02 | inhibitor, single point
CCn1cc(-c2ccnc3[nH]c(-c4cccc(CN(C)C)c4)cc23)c(-c2ccc(NC(=O)N(C)C)cc2)n1 | 13.1 | inhibitor, partial curve
COC(=O)[C@H]1[C@H]2C[C@@H]3c4[nH]c5cc(OC)ccc5c4CCN3C[C@H]2C[C@@H](OC(=O)c2cc(OC)c(OC)c(OC)c2)[C@@H]1OC | 1.313 | inhibitor, full curve, poor fit
CS(=O)c1ccc(-c2nc(-c3ccc(F)cc3)c(-c3ccncc3)[nH]2)cc1 (stereo not drawn) | 3.702 | inhibitor, full curve
COc1cc(C(=O)NS(=O)(=O)c2ccccc2C)ccc1Cc1cn(C)c2ccc(NC(=O)OC3CCCC3)cc12 | 23.3 | inhibitor, single point
C/C=C/C1=CC2=C(CO1)C(=O)C(C)(O)C(OC(=O)c1c(C)cc(OC)cc1O)C2 (stereo not drawn) | 5.125 | inhibitor, full curve, poor fit
CN(C)CCOc1cc(NS(=O)(=O)c2c(Cl)cc(C(F)(F)F)cc2Cl)ccc1Cl | 16.53 | inhibitor, partial curve, poor fit
O=C(O)c1ccc(N2C(=O)/C(=C/c3ccc(-c4ccc([N+](=O)[O-])cc4)o3)C=C2c2ccccc2)cc1 | 32.99 | inhibitor, single point
O=C(O)Cc1cccc(OCCCN(Cc2cccc(C(F)(F)F)c2Cl)CC(c2ccccc2)c2ccccc2)c1 | 8.266 | inhibitor, full curve
COc1ccc(-c2nc(C(=O)N3CCN(C)CC3)sc2-c2ccc(OC)cc2)cc1 | 7.367 | inhibitor, full curve, poor fit
CC1(C)CC2C3=CCC4C5(C)CCC(OC6OC(CO)C(O)C(OC7OC(CO)C(O)C(OC8OC(CO)C(O)C(OC9OC(COC%10OC(CO)C(O)C(O)C%10O)C(O)C(O)C9O)C8O)C7O)C6O)C(C)(C)C5CCC4(C)C3(C)CCC2(C(=O)O)CC1O (stereo not drawn) | 0.0002 | inhibitor, full curve, poor fit
Cc1cc(OCCCc2c(C(=O)O)n(Cc3cccnc3)c3c(-c4c(COc5ccc(N6CCN([S+](C)(=O)[O-])CC6)cc5)nn(C)c4C)cccc23)cc(C)c1Cl | 14.7 | inhibitor, partial curve
O=C(O)C1(Cc2cccc(Nc3nccs3)n2)CCC(Oc2cccc(Cl)c2F)CC1 (stereo not drawn) | 20.82 | inhibitor, partial curve
CC(C)(C)c1ccc(S(=O)(=O)Nc2ccc(O)c(Sc3nc4ccccc4s3)c2)cc1 | 1.122 | inhibitor, partial curve, poor fit
CS(=O)c1ccc(-c2nc(-c3ccc(F)cc3)c(-c3ccncc3)[nH]2)cc1 (stereo not drawn) | 18.51 | inhibitor, partial curve
N#CC(c1ccnc(OCc2ccc(CN3CCOCC3)cc2)n1)c1nc2ccccc2s1 (stereo not drawn) | 18.55 | inhibitor, partial curve, poor fit
O=C(O)c1c(Sc2ccccc2)c2cc(Cl)ccc2n1Cc1ccc(Cl)cc1 | 18.51 | inhibitor, partial curve
COc1cc2c(c(O)c1OC/C=C(\C)CC/C=C(/C)CCC=C(C)C)CN(C(CCC(=O)O)C(=O)O)C2=O (stereo not drawn) | 0.5717 | inhibitor, full curve
CC(C)c1onc(-c2c(Cl)cccc2Cl)c1COc1ccc(/C=C/c2cccc(C(=O)O)c2)c(Cl)c1 | 9.275 | inhibitor, partial curve
CCOC(=O)c1cnc2c(cnn2CC)c1NN=C(C)C | 5.216 | inhibitor, partial curve, poor fit
CC(C)CN1CC(CNC(=O)c2ccc(Oc3ccccc3)cc2)Oc2ccnc(-c3ccc(OCC(=O)O)cc3)c2C1=O (stereo not drawn) | 58.67 | inhibitor, partial curve, poor fit
O=C(NCCCc1ccccc1)c1cccc(-c2cc(O)c3ncccc3c2)c1 | 37.02 | inhibitor, single point
Cc1cc(CN2CCN(c3c(Br)cnc4nc(-c5ccc(N6CCN(C)CC6)cc5)[nH]c34)CC2)no1 | 23.3 | inhibitor, partial curve
O=C(O)c1ccccc1-c1c2cc(Br)c(=O)cc-2oc2[c]([Hg])c(O)c(Br)cc12 | 31.62 | inhibitor, single point
CCc1cc2c(=O)c(-c3nc4ccccc4s3)coc2c(CN2CCCCC2)c1O | 18.08 | inhibitor, single point

The first 3 entries again:

SMILES,Potency (µM),curve
COc1ccc(Br)cc1S(=O)(=O)NC(=O)/C=C/c1ccccc1Cc1ccc2ccccc2c1,5.852,"inhibitor, partial curve, poor fit"
O=C(O)COc1ccc(-c2nccc3c2C(=O)N(Cc2ccccc2)CC(COc2cccc(C(F)(F)F)c2)O3)cc1 (stereo not drawn),0.0104,"inhibitor, full curve, poor fit"
CCCCCc1ccc(/C=C/C(=O)Nc2cc(Cl)ccc2C(=O)O)cc1,6.583,"inhibitor, full curve, poor fit"